# According to the supplement of paper PMC8728848:
# The other results are listed elsewhere or left out.
# Assays:
# Assay in all cases: glycan array binding signal (z-score within array); higher = stronger binding
# Settings in all cases: glycan notation: IUPAC condensed, linker removed
# Fuc(a1-2)Gal = molecular target: Fuc(a1-2)Gal
# In short: (§1)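 The Consortium for Functional Glycomics database supplied 3228 glycan arrays, of which those lacking an available protein sequence were dropped. The binding signal, a within-array Z-score, was averaged across arrays of the same protein sequence and across linkers. Negative scores can be read as non-binding.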
# Fuc(a1-2)Gal(b1-3)GalNAc = molecular target: Fuc(a1-2)Gal(b1-3)GalNAc
# In short: as §1
# [1] = molecular target: Fuc(a1-2)Gal(b1-3)GalNAc(a1-3)[Fuc(a1-2)]Gal(b1-4)Glc
# In short: as §1
# [2] = molecular target: Fuc(a1-2)Gal(b1-3)GalNAc(a1-3)[Fuc(a1-2)]Gal(b1-4)GlcNAc
# In short: as §1
# [3] = molecular target: Fuc(a1-2)Gal(b1-3)GalNAc(b1-3)Gal
# In short: as §1
# [4] = molecular target: Fuc(a1-2)Gal(b1-3)GalNAc(b1-3)Gal(a1-4)Gal(b1-4)Glc
# In short: as §1
# [5] = molecular target: Fuc(a1-2)Gal(b1-3)GalNAc(b1-4)[Neu5Ac(a2-3)]Gal(b1-4)Glc
# In short: as §1
# Fuc(a1-2)Gal(b1-3)GlcNAc = molecular target: Fuc(a1-2)Gal(b1-3)GlcNAc
# In short: as §1
# [6] = molecular target: Fuc(a1-2)Gal(b1-3)GlcNAc(b1-2)Man(a1-3)[Fuc(a1-2)Gal(b1-3)GlcNAc(b1-2)Man(a1-6)]Man(b1-4)GlcNAc(b1-4)GlcNAc
# In short: as §1
# [7] = molecular target: Fuc(a1-2)Gal(b1-3)GlcNAc(b1-2)Man(a1-3)[Fuc(a1-2)Gal(b1-3)GlcNAc(b1-2)Man(a1-6)]Man(b1-4)GlcNAc(b1-4)[Fuc(a1-6)]GlcNAc
# In short: as §1
# [8] = molecular target: Fuc(a1-2)Gal(b1-3)GlcNAc(b1-3)Gal(b1-4)Glc
# In short: as §1
# [9] = molecular target: Fuc(a1-2)Gal(b1-3)GlcNAc(b1-3)GalNAc
# In short: as §1
# [10] = molecular target: Fuc(a1-2)Gal(b1-3)GlcNAc(b1-3)[Fuc(a1-2)Gal(b1-3)GlcNAc(b1-6)]GalNAc
# In short: as §1
# [11] = molecular target: Fuc(a1-2)Gal(b1-3)GlcNAc(b1-3)[Gal(b1-4)GlcNAc(b1-6)]Gal(b1-4)Glc
# In short: as §1
# [12] = molecular target: Fuc(a1-2)Gal(b1-3)GlcNAc(b1-3)[Neu5Ac(a2-6)Gal(b1-4)GlcNAc(b1-6)]Gal(b1-4)Glc
# In short: as §1
# [13] = molecular target: Fuc(a1-2)Gal(b1-3)GlcNAc6S
# In short: as §1
# [14] = molecular target: Fuc(a1-2)Gal(b1-3)[Fuc(a1-4)]GlcNAc
# In short: as §1
# [15] = molecular target: Fuc(a1-2)Gal(b1-3)[Fuc(a1-4)]GlcNAc(b1-2)Man(a1-3)[Fuc(a1-2)Gal(b1-3)[Fuc(a1-4)]GlcNAc(b1-2)Man(a1-3)]Man(b1-4)GlcNAc(b1-4)GlcNAc
# In short: as §1
# [16] = molecular target: Fuc(a1-2)Gal(b1-3)[Fuc(a1-4)]GlcNAc(b1-2)Man(a1-3)[Fuc(a1-2)Gal(b1-3)[Fuc(a1-4)]GlcNAc(b1-2)Man(a1-6)]Man(b1-4)GlcNAc(b1-4)[Fuc(a1-6)]GlcNAc(b1-4)[Fuc(a1-6)]GlcNAc
# In short: as §1
# [17] = molecular target: Fuc(a1-2)Gal(b1-3)[Fuc(a1-4)]GlcNAc(b1-3)[Fuc(a1-3)[Gal(b1-4)]GlcNAc(b1-6)]Gal(b1-4)Glc
# In short: as §1
# [18] = molecular target: Fuc(a1-2)Gal(b1-3)[Fuc(a1-4)]GlcNAc(b1-3)[Gal(b1-4)GlcNAc(b1-6)]Gal(b1-4)Glc
# In short: as §1
# [19] = molecular target: Fuc(a1-2)Gal(b1-4)Fuc(a1-3)]GlcNAc(b1-2)Man(a1-3)[Fuc(a1-2)Gal(b1-4)[Fuc(a1-3)]GlcNAc(b1-2)Man(a1-6)]Man(b1-4)GlcNAc(b1-4)GlcNAc
# In short: as §1
# Fuc(a1-2)Gal(b1-4)Glc = molecular target: Fuc(a1-2)Gal(b1-4)Glc
# In short: as §1
# Fuc(a1-2)Gal(b1-4)Glc6S = molecular target: Fuc(a1-2)Gal(b1-4)Glc6S
# In short: as §1
# Fuc(a1-2)Gal(b1-4)GlcNAc = molecular target: Fuc(a1-2)Gal(b1-4)GlcNAc
# In short: as §1
# [20] = molecular target: Fuc(a1-2)Gal(b1-4)GlcNAc(b1-2)Man
# In short: as §1
# [21] = molecular target: Fuc(a1-2)Gal(b1-4)GlcNAc(b1-2)Man(a1-3)[Fuc(a1-2)Gal(b1-4)GlcNAc(b1-2)Man(a1-6)]Man(b1-4)GlcNAc(b1-4)GlcNAc
# In short: as §1
# [22] = molecular target: Fuc(a1-2)Gal(b1-4)GlcNAc(b1-2)Man(a1-3)[Fuc(a1-2)Gal(b1-4)GlcNAc(b1-2)Man(a1-6)]Man(b1-4)GlcNAc(b1-4)[Fuc(a1-6)]GlcNAc
# In short: as §1
# [23] = molecular target: Fuc(a1-2)Gal(b1-4)GlcNAc(b1-2)[Fuc(a1-2)Gal(b1-4)GlcNAc(b1-4)]Man(a1-3)[Fuc(a1-2)Gal(b1-4)GlcNAc(b1-2)Man(a1-6)]Man(b1-4)GlcNAc(b1-4)GlcNAc
# In short: as §1
# [24] = molecular target: Fuc(a1-2)Gal(b1-4)GlcNAc(b1-3)Gal(b1-4)GlcNAc
# In short: as §1
# [25] = molecular target: Fuc(a1-2)Gal(b1-4)GlcNAc(b1-3)Gal(b1-4)GlcNAc(b1-2)Man(a1-3)[Fuc(a1-2)Gal(b1-4)GlcNAc(b1-3)Gal(b1-4)GlcNAc(b1-2)Man(a1-6)]Man(b1-4)GlcNAc(b1-4)GlcNAc
# In short: as §1
# [26] = molecular target: Fuc(a1-2)Gal(b1-4)GlcNAc(b1-3)Gal(b1-4)GlcNAc(b1-3)Gal(b1-4)GlcNAc
# In short: as §1
# [27] = molecular target: Fuc(a1-2)Gal(b1-4)GlcNAc(b1-3)GalNAc
# In short: as §1
# [28] = molecular target: Fuc(a1-2)Gal(b1-4)GlcNAc(b1-3)[Fuc(a1-2)Gal(b1-4)GlcNAc(b1-6)]GalNAc
# In short: as §1
# [29] = molecular target: Fuc(a1-2)Gal(b1-4)GlcNAc(b1-3)[Fuc(a1-3)[Gal(b1-4)]GlcNAc(b1-6)]Gal(b1-4)Glc
# In short: as §1
# [30] = molecular target: Fuc(a1-2)Gal(b1-4)GlcNAc(b1-6)GalNAc
# In short: as §1
# [31] = molecular target: Fuc(a1-2)Gal(b1-4)GlcNAc6S
# In short: as §1
binder,measurement,setting,value
Epa11 (Candida glabrata) (protein) MGSSHHHHHHSSGLVPRGSHMASSNAPNYPVGCSPSVGTQLTPGLSLEVYAYPMDGNNGYCWNATYKDPEFPRSGYLKNKLLGKADGVVGPLNFLAKNKDCSPKVDTLPAGFNFPQPITVTNFTMVLFGYLAPKQSGKYTFKLLADDLLLLNLGATNAFDCCNREATKNNLGEFLAYNLWPNQDKNVTVYLEKGVYYPLRLFFNNRDGGSQLDFSYYFNDSPAPLTDFSGMFFSVPDGAECPARI,glycan array binding signal (z-score),Fuc(a1-2)Gal,-0.127
same,glycan array binding signal (z-score),Fuc(a1-2)Gal(b1-3)GalNAc,-0.261
same,glycan array binding signal (z-score),[1],-0.518
same,glycan array binding signal (z-score),[2],-0.08
same,glycan array binding signal (z-score),[3],0.881
same,glycan array binding signal (z-score),[4],-0.421
same,glycan array binding signal (z-score),[5],0.012
same,glycan array binding signal (z-score),Fuc(a1-2)Gal(b1-3)GlcNAc,-0.425
same,glycan array binding signal (z-score),[6],0.284
same,glycan array binding signal (z-score),[7],0.172
same,glycan array binding signal (z-score),[8],-0.259
same,glycan array binding signal (z-score),[9],-0.178
same,glycan array binding signal (z-score),[10],-0.092
same,glycan array binding signal (z-score),[11],-0.245
same,glycan array binding signal (z-score),[12],-0.474
same,glycan array binding signal (z-score),[13],-0.634
same,glycan array binding signal (z-score),[14],-0.638
same,glycan array binding signal (z-score),[15],-0.183
same,glycan array binding signal (z-score),[16],0.154
same,glycan array binding signal (z-score),[17],-0.783
same,glycan array binding signal (z-score),[18],-0.337
same,glycan array binding signal (z-score),[19],2.88
same,glycan array binding signal (z-score),Fuc(a1-2)Gal(b1-4)Glc,-0.83
same,glycan array binding signal (z-score),Fuc(a1-2)Gal(b1-4)Glc6S,0.065
same,glycan array binding signal (z-score),Fuc(a1-2)Gal(b1-4)GlcNAc,-0.601
same,glycan array binding signal (z-score),[20],0.705
same,glycan array binding signal (z-score),[21],-0.265
same,glycan array binding signal (z-score),[22],0.592
same,glycan array binding signal (z-score),[23],0.166
same,glycan array binding signal (z-score),[24],-0.92
same,glycan array binding signal (z-score),[25],-0.583
same,glycan array binding signal (z-score),[26],-0.015
same,glycan array binding signal (z-score),[27],-0.679
same,glycan array binding signal (z-score),[28],0.05
same,glycan array binding signal (z-score),[29],0.437
same,glycan array binding signal (z-score),[30],0.516
same,glycan array binding signal (z-score),[31],-0.279

# As a working copy, some entries already given.
binder,measurement,setting,value
Epa11 (Candida glabrata) (protein) MGSSHHHHHHSSGLVPRGSHMASSNAPNYPVGCSPSVGTQLTPGLSLEVYAYPMDGNNGYCWNATYKDPEFPRSGYLKNKLLGKADGVVGPLNFLAKNKDCSPKVDTLPAGFNFPQPITVTNFTMVLFGYLAPKQSGKYTFKLLADDLLLLNLGATNAFDCCNREATKNNLGEFLAYNLWPNQDKNVTVYLEKGVYYPLRLFFNNRDGGSQLDFSYYFNDSPAPLTDFSGMFFSVPDGAECPARI,glycan array binding signal (z-score),Fuc(a1-2)Gal(b1-4)Glc,-0.83
same,glycan array binding signal (z-score),Fuc(a1-2)Gal(b1-4)Glc6S,0.065
